Laboratory results taken from paper PMC8481818.
No constants are given. Whether binding was seen depends on the method and setting. Binding seen in cells or lysates may run through a third protein. Binding can be weak; no strength is given.

What was measured:
[1] = target: T1, E3 ubiquitin ligase MARCH1 (human (endogenous in HepG2)) (UniProt Q8TCQ1); test: co-IP; HepG2 cells lysed by RIPA; lysates incubated with anti-USP4 or anti-MARCH1 antibody and Protein A agarose beads; insulin receptor in the precipitate detected by Western blot; cells treated as control, Dex, or Dex + gastrodin 100 uM, all with MG132
T1 sequence: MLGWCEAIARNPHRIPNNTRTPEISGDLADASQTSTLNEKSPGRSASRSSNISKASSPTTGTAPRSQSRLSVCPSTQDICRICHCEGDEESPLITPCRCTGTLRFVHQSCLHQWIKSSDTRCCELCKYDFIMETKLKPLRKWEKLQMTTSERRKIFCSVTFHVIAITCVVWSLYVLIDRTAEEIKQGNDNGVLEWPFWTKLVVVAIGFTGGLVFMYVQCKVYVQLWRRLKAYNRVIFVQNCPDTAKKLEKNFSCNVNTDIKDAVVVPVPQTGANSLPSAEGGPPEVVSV

[2] = target: T2, ubiquitin-specific protease 4 (human (endogenous in HepG2)) (UniProt Q13107); test: as above
T2 sequence: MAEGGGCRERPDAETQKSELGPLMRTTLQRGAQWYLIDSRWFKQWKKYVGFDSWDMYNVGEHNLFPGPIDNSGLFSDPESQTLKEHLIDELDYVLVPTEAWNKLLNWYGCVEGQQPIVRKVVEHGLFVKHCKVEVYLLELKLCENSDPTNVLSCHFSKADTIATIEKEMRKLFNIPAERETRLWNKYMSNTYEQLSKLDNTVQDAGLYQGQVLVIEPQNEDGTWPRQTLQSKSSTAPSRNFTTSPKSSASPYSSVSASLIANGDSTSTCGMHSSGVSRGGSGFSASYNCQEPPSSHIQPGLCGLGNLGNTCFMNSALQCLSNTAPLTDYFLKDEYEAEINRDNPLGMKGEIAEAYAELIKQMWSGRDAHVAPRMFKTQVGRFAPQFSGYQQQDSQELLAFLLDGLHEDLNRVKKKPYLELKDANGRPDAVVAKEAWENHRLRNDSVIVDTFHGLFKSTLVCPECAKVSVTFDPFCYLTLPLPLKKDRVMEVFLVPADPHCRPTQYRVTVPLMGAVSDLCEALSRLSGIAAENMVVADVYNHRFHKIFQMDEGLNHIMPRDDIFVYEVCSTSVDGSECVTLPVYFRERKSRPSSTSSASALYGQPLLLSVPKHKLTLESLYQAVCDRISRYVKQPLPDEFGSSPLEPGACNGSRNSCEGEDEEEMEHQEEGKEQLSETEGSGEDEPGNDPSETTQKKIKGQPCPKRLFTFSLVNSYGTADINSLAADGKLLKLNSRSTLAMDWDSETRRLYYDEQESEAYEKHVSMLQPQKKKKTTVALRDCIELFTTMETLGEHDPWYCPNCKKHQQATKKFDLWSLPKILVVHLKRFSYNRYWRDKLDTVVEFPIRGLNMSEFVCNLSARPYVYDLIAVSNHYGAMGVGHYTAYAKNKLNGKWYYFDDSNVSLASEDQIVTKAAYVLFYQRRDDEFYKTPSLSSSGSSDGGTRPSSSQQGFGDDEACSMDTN

binding [1]: binds
binding [2]: binds
Substance: insulin receptor (human (endogenous in HepG2))
